{"sequences": {"note": "Amino acid sequences for entries named in this document (tags omitted). A change or cut given only in a name is not applied to a line headed by its entry.", "UniProt Q3YEC7": "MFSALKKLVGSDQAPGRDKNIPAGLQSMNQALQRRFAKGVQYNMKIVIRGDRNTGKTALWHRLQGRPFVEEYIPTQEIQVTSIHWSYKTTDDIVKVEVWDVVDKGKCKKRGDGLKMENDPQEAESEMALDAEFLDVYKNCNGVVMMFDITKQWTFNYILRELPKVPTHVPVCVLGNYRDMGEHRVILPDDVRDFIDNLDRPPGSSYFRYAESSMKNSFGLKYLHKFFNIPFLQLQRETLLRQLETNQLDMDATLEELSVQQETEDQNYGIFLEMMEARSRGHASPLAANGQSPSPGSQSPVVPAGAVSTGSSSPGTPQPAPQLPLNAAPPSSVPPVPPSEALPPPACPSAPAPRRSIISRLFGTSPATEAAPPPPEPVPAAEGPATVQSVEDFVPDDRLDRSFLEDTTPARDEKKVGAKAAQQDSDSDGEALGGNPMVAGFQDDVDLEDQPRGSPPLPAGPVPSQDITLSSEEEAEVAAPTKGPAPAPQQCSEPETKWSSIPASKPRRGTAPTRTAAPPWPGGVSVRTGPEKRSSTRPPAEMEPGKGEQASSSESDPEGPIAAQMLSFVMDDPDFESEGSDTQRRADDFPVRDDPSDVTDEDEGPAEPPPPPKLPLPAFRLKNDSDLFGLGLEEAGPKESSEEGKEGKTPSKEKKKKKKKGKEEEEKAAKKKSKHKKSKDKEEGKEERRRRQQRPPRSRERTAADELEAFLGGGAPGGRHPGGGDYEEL", "UniProt Q58FG0, whole entry": "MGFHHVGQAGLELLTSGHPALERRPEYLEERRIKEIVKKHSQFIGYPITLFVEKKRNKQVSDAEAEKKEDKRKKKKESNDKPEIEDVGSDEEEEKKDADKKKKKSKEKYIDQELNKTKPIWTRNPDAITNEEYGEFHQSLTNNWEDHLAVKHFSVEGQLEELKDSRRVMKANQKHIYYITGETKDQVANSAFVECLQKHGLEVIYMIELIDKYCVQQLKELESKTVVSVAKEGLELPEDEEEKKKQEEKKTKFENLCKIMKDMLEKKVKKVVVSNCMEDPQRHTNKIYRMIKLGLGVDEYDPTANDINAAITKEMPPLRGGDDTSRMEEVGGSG", "UniProt Q5T890": "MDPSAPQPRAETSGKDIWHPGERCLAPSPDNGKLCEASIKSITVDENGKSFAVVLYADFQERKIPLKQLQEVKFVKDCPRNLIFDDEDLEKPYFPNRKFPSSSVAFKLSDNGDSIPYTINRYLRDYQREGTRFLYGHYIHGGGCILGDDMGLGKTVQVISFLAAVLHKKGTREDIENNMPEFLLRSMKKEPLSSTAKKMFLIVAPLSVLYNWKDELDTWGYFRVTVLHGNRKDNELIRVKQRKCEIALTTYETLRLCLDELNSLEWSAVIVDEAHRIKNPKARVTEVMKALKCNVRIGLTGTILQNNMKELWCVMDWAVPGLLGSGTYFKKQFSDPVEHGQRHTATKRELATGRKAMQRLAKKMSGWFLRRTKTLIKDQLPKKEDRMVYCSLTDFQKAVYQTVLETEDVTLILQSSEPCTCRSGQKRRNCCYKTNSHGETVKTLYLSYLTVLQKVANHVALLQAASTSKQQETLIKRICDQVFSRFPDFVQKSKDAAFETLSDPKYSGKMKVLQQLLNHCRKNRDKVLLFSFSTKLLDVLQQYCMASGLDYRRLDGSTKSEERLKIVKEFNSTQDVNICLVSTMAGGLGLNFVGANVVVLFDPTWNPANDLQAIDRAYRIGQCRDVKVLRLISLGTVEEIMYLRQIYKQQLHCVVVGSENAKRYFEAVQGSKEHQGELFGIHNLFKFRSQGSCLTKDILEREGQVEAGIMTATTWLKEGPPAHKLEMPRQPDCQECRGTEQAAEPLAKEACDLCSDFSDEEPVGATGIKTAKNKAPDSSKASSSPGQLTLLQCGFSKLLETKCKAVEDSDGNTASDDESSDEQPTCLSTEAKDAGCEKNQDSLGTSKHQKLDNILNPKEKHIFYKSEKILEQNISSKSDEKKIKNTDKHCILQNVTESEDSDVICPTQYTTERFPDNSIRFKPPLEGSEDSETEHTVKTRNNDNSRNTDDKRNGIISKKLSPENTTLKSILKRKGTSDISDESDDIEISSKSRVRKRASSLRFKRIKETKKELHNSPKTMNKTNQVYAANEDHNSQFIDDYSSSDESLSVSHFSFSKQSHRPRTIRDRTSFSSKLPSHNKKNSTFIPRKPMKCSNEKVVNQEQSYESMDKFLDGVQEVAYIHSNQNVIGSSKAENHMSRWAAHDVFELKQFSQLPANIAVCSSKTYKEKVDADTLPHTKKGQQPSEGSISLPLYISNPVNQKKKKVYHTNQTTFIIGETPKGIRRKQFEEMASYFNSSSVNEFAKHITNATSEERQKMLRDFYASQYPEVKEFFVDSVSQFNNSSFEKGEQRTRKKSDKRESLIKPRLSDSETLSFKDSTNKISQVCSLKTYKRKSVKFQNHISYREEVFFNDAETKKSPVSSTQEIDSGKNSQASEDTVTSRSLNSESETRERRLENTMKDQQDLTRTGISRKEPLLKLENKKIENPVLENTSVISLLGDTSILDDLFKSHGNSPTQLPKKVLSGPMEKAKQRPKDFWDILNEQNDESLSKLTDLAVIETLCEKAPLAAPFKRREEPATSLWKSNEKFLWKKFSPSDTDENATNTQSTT", "UniProt Q58FF8, whole entry": "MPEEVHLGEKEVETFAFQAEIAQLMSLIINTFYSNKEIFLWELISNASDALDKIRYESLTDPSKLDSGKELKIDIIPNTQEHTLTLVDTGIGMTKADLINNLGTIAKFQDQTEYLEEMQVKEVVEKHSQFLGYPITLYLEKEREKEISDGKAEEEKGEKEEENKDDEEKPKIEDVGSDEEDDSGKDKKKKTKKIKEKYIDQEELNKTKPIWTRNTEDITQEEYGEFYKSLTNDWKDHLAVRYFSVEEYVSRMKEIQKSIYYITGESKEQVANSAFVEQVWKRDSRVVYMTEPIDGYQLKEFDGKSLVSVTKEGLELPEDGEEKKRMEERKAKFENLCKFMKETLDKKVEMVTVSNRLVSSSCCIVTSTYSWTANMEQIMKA", "UniProt Q5K651": "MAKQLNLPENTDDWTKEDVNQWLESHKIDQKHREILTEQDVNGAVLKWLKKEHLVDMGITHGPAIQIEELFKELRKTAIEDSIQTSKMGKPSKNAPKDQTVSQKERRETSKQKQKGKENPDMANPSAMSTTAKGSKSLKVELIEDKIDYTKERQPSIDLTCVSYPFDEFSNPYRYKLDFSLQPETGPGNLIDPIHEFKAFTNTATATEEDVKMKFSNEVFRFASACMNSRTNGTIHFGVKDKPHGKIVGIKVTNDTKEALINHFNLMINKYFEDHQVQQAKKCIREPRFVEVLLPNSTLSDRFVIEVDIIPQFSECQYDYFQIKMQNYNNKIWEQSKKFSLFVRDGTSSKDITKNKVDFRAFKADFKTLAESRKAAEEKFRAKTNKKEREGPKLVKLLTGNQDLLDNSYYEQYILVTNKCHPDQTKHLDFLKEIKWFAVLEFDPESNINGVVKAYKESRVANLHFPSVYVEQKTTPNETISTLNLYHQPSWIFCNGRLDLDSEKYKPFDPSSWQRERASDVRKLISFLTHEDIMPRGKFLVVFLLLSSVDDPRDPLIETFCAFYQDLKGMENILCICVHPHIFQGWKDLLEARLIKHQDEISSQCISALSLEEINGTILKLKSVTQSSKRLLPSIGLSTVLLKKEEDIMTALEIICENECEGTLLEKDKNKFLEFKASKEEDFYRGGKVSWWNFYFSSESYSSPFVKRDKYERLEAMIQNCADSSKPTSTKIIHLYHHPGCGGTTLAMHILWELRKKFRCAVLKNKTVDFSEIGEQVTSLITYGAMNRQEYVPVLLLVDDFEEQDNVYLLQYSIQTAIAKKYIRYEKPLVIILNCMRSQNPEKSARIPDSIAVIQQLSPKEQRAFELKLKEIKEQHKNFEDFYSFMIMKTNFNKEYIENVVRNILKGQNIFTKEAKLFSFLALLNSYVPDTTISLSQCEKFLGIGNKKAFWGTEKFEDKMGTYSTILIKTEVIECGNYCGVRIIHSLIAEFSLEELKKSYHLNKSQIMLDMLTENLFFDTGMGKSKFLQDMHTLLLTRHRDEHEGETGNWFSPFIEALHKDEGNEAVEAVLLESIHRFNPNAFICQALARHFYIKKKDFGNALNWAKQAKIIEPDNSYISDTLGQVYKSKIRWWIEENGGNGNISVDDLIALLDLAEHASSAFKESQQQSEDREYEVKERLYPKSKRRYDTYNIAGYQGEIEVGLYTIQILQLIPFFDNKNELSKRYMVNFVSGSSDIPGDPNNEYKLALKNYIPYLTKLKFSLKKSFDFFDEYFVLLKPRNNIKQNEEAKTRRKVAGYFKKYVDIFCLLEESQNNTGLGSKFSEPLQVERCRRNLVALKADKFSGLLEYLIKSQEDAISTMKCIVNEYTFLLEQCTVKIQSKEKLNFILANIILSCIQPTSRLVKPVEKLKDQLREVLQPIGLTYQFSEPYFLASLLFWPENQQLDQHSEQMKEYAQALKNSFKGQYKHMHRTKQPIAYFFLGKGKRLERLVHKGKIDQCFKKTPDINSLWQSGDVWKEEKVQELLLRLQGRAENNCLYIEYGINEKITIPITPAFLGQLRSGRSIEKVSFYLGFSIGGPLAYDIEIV", "UniProt Q5UAW9": "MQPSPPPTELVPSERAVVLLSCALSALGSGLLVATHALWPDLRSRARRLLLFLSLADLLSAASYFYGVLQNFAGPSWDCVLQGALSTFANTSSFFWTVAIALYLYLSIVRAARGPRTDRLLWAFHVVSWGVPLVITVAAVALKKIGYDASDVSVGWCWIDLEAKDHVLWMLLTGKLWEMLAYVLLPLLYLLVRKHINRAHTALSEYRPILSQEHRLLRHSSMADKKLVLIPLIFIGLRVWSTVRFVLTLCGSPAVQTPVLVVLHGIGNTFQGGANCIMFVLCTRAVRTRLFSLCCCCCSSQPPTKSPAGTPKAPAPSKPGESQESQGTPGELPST", "UniProt Q5M9Q1": "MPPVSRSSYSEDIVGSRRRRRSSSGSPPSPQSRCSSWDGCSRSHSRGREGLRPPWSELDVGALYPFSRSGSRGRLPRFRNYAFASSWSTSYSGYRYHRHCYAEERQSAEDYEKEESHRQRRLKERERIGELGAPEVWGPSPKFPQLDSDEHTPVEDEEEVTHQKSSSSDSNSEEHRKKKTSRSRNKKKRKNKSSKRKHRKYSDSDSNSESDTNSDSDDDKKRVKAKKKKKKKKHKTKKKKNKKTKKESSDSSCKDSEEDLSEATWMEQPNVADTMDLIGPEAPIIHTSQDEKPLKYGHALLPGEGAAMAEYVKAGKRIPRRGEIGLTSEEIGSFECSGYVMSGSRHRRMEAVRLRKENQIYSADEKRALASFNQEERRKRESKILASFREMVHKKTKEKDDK", "UniProt Q49B96": "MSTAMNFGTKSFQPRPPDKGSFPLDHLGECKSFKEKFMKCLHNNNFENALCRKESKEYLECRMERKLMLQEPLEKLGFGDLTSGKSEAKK", "UniProt Q58A45": "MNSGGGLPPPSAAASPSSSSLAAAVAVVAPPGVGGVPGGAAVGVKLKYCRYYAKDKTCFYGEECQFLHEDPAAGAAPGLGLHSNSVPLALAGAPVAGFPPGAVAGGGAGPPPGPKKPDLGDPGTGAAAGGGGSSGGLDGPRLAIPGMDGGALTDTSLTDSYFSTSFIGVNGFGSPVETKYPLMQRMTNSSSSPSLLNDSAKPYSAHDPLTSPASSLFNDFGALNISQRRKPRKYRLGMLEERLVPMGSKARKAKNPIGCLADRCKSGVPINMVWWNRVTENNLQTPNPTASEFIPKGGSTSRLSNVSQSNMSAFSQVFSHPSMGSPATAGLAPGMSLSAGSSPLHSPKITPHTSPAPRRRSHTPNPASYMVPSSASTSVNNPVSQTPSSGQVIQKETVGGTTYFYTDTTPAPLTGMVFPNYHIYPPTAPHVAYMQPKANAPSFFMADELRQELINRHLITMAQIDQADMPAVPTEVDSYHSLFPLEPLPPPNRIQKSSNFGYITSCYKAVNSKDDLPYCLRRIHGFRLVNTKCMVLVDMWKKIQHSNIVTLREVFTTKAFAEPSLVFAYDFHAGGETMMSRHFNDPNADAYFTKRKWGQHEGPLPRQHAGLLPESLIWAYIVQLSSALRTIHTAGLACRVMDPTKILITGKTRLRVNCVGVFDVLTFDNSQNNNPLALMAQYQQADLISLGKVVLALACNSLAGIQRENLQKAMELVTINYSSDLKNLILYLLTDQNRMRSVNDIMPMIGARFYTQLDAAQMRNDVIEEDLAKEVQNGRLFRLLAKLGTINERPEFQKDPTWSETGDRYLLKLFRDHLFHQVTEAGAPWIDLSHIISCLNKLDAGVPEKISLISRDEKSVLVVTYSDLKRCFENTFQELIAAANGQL", "UniProt Q53H82": "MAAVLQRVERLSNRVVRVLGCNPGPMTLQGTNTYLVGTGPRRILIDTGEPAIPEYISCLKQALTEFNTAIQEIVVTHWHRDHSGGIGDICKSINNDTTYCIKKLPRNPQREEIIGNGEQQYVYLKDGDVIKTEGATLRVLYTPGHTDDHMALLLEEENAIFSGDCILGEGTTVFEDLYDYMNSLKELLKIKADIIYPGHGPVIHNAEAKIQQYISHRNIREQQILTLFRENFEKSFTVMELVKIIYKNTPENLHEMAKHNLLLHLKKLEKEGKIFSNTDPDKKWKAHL"}, "source": "the supplement of paper PMC12819154", "about": "“High-throughput peptide-centric local stability assay extends protein–ligand identification to membrane proteins, tissues and bacteria” (Nature Structural & Molecular Biology, 2025)", "note": "This is one part of the list. Most entries show no effect beyond the scatter of the controls."}
{"compound": "Cc1nc(Nc2ncc(C(=O)Nc3c(C)cccc3Cl)s2)cc(N2CCN(CCO)CC2)n1 [dasatinib]", "assay": "log2 fold change of tryptic peptide abundance, ligand vs vehicle (limited proteolysis) (log2 ratio); higher = more trypsin-susceptible (destabilized)", "conditions": "ligand concentration: 5 uM; sample: K562 cleared lysate"}
{"target": "UniProt Q3YEC7 (peptide sequence: VPTHVPVCVLGNYR, peptide start residue: 165)", "log2 fold change": -0.373}
{"target": "UniProt Q5MIZ7 (peptide sequence: ESEDKENLPK, peptide start residue: 756)", "log2 fold change": -0.156}
{"target": "UniProt Q58FG0 (peptide sequence: HSQFIGYPITLFVEK, peptide start residue: 210)", "log2 fold change": -0.142}
{"target": "ERCC6L2 (peptide sequence: EHQGELFGIHNLFK, peptide start residue: 684) (UniProt Q5T890)", "log2 fold change": -0.493}
{"target": "CT47A1 (peptide sequence: EPAEEAAEEK, peptide start residue: 210) (UniProt Q5JQC4)", "log2 fold change": 0.193}
{"target": "SNAP47 (peptide sequence: GEELTGLMAGSQK, peptide start residue: 164) (UniProt Q5SQN1)", "log2 fold change": -0.292}
{"target": "FGD3 (peptide sequence: LQALPVGPR, peptide start residue: 32) (UniProt Q5JSP0)", "log2 fold change": 0.0989}
{"target": "MRPL51 (peptide sequence: AMFGVYDNIGILGNFEKHPK, peptide start residue: 52) (UniProt Q4U2R6)", "log2 fold change": -0.0157}
{"target": "HSP90AB2P (peptide sequence: YESLTDPSKLDSGK, peptide start residue: 56) (UniProt Q58FF8)", "log2 fold change": -0.128}
{"target": "CROCC (peptide sequence: QALLQAQLEEQLRDK, peptide start residue: 360) (UniProt Q5TZA2)", "log2 fold change": 0.154}
{"target": "SAMD9 (peptide sequence: KTAIEDSIQTSK, peptide start residue: 76) (UniProt Q5K651)", "log2 fold change": 0.48}
{"target": "AARS2 (peptide sequence: QGLWLDVHALGELQR, peptide start residue: 490) (UniProt Q5JTZ9)", "log2 fold change": 0.315}
{"target": "UniProt Q5TYM5 (peptide sequence: STNICSFKDR, peptide start residue: 2)", "log2 fold change": -0.202}
{"target": "FAM76B (peptide sequence: SLGSSHSNSSSSSLTEKDQHHPK, peptide start residue: 148) (UniProt Q5HYJ3)", "log2 fold change": -1.34}
{"target": "UniProt Q5UAW9 (peptide sequence: SPAGTPK, peptide start residue: 306)", "log2 fold change": -0.303}
{"target": "UniProt Q5M9Q1 (peptide sequence: ENQIYSADEK, peptide start residue: 370)", "log2 fold change": -0.182}
{"target": "TRMT12 (peptide sequence: AQGCSPAQK, peptide start residue: 98) (UniProt Q53H54)", "log2 fold change": 0.213}
{"target": "CYBRD1 (peptide sequence: NLALDEAGQR, peptide start residue: 274) (UniProt Q53TN4)", "log2 fold change": -0.0642}
{"target": "FUT11 (peptide sequence: HIPVDSYGKCLQNR, peptide start residue: 234) (UniProt Q495W5)", "log2 fold change": -0.372}
{"target": "ACSF3 (peptide sequence: EACSYTIHAEGDER, peptide start residue: 397) (UniProt Q4G176)", "log2 fold change": -0.231}
{"target": "USP39 (peptide sequence: EREPEAASSR, peptide start residue: 35) (UniProt Q53GS9)", "log2 fold change": 0.307}
{"target": "WDR81 (peptide sequence: SLVLDWVHGR, peptide start residue: 347) (UniProt Q562E7)", "log2 fold change": 0.376}
{"target": "UniProt Q3V5L5 (peptide sequence: ESLIFMK, peptide start residue: 340)", "log2 fold change": -0.15}
{"target": "DNLZ (peptide sequence: VEAAHYQLVYTCK, peptide start residue: 64) (UniProt Q5SXM8)", "log2 fold change": -0.0382}
{"target": "HSP90AB4P (peptide sequence: SLIINTFYSNK, peptide start residue: 2) (UniProt Q58FF6)", "log2 fold change": -0.227}
{"target": "EXOSC6 (peptide sequence: GGGPAGAGGEAPAALR, peptide start residue: 78) (UniProt Q5RKV6)", "log2 fold change": -0.266}
{"target": "RABGAP1L (peptide sequence: WHSNLGARPK, peptide start residue: 520) (UniProt Q5R372)", "log2 fold change": -0.444}
{"target": "UniProt Q5JR59 (peptide sequence: KNESALVKEK, peptide start residue: 1039)", "log2 fold change": 0.136}
{"target": "COX19 (peptide sequence: LGFGDLTSGK, peptide start residue: 76) (UniProt Q49B96)", "log2 fold change": 0.0846}
{"target": "SETMAR (peptide sequence: SDSNYIIAIR, peptide start residue: 188) (UniProt Q53H47)", "log2 fold change": -0.793}
{"target": "PAN3 (peptide sequence: KIQHSNIVTLR, peptide start residue: 542) (UniProt Q58A45)", "log2 fold change": -0.305}
{"target": "LACTB2 (peptide sequence: DHSGGIGDICK, peptide start residue: 81) (UniProt Q53H82)", "log2 fold change": -0.29}
{"target": "UniProt Q4G0N4 (peptide sequence: ILFSIREPIANR, peptide start residue: 373)", "log2 fold change": -0.0634}
{"target": "ERMARD (peptide sequence: LEDNSETNACHSLITK, peptide start residue: 466) (UniProt Q5T6L9)", "log2 fold change": -0.384}
{"target": "UniProt Q4AE62 (peptide sequence: NFNSECDTHCGLDTAR, peptide start residue: 217)", "log2 fold change": -0.185}
{"target": "C2CD3 (peptide sequence: ENTEPSSTQFQVPSRPR, peptide start residue: 197) (UniProt Q4AC94)", "log2 fold change": -0.359}
{"target": "UniProt Q5TEU4 (peptide sequence: GSATVSFGELGK, peptide start residue: 322)", "log2 fold change": 0.14}
{"target": "PUS10 (peptide sequence: DIEFLNDIK, peptide start residue: 428) (UniProt Q3MIT2)", "log2 fold change": 0.227}
